Consider 2 substances from paper PMC4161973.

Protein sequences, listed by entry. Tags and fused reporters are not part of them. Lines headed by an entry give the natural chain unless they say otherwise; changes in a name come on top.
UniProt Q06142: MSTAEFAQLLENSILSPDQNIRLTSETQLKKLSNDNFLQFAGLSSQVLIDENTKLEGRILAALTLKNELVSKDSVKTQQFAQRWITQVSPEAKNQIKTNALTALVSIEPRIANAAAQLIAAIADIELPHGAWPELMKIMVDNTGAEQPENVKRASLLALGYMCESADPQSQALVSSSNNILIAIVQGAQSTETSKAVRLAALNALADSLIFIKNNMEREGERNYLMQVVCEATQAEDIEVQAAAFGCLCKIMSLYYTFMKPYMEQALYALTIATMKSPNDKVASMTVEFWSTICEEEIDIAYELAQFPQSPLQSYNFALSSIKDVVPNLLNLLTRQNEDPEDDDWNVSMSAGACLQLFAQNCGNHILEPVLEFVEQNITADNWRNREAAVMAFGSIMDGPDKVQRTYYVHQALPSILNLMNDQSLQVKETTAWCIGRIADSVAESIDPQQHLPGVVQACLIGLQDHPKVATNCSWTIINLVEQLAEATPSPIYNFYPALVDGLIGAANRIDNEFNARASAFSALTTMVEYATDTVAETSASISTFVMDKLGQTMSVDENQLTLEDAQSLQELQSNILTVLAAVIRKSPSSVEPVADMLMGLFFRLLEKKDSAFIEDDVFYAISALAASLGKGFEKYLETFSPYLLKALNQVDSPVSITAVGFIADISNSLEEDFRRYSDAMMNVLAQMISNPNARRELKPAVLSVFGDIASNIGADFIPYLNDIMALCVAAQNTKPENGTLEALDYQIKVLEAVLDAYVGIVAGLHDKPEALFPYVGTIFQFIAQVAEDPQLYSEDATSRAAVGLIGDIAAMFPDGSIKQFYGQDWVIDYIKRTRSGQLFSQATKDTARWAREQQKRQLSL
UniProt P39938: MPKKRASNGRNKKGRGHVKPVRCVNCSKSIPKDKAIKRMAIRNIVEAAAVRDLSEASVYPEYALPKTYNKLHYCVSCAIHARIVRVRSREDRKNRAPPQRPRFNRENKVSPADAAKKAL

Test [1] deals with T1, GST-Kap123 (S. cerevisiae) (UniProt P40069).
T1 sequence: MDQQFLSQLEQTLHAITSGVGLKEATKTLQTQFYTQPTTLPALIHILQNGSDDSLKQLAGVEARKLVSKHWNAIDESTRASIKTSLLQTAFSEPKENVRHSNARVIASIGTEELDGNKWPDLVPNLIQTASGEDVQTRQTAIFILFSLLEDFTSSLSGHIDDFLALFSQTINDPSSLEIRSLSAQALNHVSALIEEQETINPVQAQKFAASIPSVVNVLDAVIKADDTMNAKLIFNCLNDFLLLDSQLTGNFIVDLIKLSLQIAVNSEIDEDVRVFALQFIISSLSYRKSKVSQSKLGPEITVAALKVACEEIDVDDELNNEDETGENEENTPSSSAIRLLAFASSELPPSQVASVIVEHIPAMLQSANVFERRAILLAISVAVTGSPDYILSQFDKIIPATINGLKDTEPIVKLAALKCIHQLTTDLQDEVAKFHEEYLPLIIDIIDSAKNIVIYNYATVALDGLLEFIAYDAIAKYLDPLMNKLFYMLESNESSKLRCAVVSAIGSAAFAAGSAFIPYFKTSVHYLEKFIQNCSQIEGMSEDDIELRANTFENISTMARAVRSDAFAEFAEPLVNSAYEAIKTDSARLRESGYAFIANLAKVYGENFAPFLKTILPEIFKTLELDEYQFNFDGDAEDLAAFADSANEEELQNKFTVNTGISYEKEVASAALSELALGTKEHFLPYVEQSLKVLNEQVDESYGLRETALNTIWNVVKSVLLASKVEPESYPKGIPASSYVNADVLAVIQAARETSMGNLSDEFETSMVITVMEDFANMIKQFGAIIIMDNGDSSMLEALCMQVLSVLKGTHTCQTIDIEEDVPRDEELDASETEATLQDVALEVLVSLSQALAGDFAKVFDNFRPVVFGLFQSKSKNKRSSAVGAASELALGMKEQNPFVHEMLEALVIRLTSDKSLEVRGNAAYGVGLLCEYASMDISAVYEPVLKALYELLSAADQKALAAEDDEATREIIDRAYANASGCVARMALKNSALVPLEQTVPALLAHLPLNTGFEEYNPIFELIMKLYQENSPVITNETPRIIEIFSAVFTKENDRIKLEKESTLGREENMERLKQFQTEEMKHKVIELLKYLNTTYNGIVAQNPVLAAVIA
Briefly: pull-down; GST-importins immobilised on Glutathione Sepharose, incubated with purified 3.4 µM Tsr2 or 4 µM Tsr2:eS26 in PBSKMT with competing E. coli lysates for 1 hr at 4°C; Coomassie Blue staining or Western; both purified.

In test [2] the target is GST-tagged Kap95 (S. cerevisiae) (UniProt Q06142). As to the kind of experiment: pull-down; GST-importins immobilised on Glutathione Sepharose, incubated with E. coli lysate containing ∼4 µM eS26^FLAG (or its mutants, or GFP-eS26) in PBSKMT with competing E. coli lysates for 1 hr at 4°C; Coomassie Blue staining or Western; only the target purified.
The target of test [3] is T2, GST-Kap104 (S. cerevisiae) (UniProt P38217).
T2 sequence: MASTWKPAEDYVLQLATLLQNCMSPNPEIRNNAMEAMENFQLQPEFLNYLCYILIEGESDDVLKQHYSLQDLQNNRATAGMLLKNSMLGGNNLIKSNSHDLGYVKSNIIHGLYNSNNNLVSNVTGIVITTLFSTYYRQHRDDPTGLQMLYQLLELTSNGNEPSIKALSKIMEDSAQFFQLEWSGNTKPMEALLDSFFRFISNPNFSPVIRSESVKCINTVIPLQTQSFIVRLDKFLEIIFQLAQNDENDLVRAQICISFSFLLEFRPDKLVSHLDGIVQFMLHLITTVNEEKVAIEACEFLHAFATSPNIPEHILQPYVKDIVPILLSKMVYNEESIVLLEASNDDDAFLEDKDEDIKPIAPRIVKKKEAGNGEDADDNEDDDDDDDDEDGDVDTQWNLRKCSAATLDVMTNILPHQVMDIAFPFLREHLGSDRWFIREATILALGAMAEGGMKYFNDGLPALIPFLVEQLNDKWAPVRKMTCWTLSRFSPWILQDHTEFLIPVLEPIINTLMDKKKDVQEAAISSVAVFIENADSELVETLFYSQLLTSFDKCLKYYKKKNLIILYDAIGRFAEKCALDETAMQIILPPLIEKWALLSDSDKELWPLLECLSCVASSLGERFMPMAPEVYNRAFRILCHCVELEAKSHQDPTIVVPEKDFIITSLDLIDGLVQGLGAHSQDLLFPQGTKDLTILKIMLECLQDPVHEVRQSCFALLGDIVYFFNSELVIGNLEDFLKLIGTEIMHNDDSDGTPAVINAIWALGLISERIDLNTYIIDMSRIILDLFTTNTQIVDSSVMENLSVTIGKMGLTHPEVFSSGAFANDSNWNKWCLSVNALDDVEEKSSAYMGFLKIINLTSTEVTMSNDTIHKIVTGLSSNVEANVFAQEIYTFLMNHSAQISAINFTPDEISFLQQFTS
The description is as above.

No constants are given. Whether binding was seen depends on the method and setting. In cells and extracts the contact can be indirect. For part of these data: Binding calls can cover weak binding; strength is not graded here. For part of these data: Tags and fused reporters may be left off the sequences shown.

Consider Tsr2:eS26 complex (S. cerevisiae), for which, in test [1], the binding entry was “no binding (tested: 4 µM Tsr2:eS26)”. As for eS26^FLAG (from UniProt P39938), the binding entry in test [2] was “binds weakly”; in test [3] it was “binds”.
